These are yes or no findings as the source states them, for the method shown. Some binding calls cover weakened binding; strength is not graded here. For some of these results: Where a sequence is shown, tags or fusion partners need not be part of it.
Key:
[1] = molecular target: T1, BMP-CD59a reporter (biotin mimetic peptide fused via (G4S)2G4 to mouse CD59a, GPI-anchored on CHO-S cells) (mouse); test: FACS on transfected CHO-S cells
T1 sequence (chain, GPI anchor at the C-terminal end of CD59a): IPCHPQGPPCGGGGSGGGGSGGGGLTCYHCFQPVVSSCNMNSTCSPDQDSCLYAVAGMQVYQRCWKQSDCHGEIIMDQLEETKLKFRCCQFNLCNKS

[2] = molecular target: BMP-Peptide carrier-TM reporter (BMP, synthetic carrier peptide, IGF-1R transmembrane peptide; on CHO-S cells) (mouse); test: FACS on stable CHO-S pools labeled with F-SA
[3] = molecular target: T1, BMP-CD59a reporter (biotin mimetic peptide fused via (G4S)2G4 to mouse CD59a, GPI-anchored on CHO-S cells) (mouse); test: FACS on stable CHO-S pools labeled with F-SA
[4] = molecular target: BMP-PAC reporter (BMP, synthetic carrier peptide, IGF-1R transmembrane peptide, (G4S)4, puromycin N-acetyl transferase; on CHO-S cells) (mouse); test: FACS on stable CHO-S pools labeled with F-SA

Measured: binding

R-Phycoerythrin-conjugated Streptavidin (from UniProt P22629 37-163)
binds: [1] | [2] | [3] | [4]

Reference: patent US20140011213A1
